# Experimental data reported in the supplement of paper PMC7666118.
# The chains behind the UniProt entries cited, without tags or fusion partners. Where a name states a change or a piece, a line headed by the entry shows the natural chain unless it says otherwise.
# UniProt Q86T03: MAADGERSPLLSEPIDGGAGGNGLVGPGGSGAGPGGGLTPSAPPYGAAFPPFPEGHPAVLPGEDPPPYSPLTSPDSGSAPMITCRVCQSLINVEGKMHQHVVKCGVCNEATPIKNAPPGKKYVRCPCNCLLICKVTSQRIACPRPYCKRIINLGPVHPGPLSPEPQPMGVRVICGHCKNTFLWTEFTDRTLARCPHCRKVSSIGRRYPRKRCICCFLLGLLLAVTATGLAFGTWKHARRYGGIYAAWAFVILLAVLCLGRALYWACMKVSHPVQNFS
# UniProt O60637: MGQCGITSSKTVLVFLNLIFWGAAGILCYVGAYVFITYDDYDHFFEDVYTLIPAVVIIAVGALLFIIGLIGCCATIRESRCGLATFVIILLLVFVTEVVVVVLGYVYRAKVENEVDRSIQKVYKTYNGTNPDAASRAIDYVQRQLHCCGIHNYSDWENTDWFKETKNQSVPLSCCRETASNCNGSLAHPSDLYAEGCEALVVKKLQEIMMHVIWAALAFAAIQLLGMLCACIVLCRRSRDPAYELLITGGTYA
# UniProt P31483: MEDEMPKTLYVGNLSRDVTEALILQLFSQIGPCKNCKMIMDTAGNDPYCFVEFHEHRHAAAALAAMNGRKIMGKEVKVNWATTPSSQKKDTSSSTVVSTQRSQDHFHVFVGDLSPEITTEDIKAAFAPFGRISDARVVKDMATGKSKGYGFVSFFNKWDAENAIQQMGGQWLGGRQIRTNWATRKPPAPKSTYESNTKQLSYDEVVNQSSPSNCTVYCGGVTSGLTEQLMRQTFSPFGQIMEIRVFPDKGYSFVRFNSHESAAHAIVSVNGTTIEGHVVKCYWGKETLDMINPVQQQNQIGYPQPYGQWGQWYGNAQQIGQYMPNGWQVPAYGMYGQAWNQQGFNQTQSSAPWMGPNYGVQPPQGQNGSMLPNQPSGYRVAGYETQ
# UniProt Q8N4H5: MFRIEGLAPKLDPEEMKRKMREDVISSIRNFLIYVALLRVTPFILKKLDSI
# UniProt Q9Y3Q8: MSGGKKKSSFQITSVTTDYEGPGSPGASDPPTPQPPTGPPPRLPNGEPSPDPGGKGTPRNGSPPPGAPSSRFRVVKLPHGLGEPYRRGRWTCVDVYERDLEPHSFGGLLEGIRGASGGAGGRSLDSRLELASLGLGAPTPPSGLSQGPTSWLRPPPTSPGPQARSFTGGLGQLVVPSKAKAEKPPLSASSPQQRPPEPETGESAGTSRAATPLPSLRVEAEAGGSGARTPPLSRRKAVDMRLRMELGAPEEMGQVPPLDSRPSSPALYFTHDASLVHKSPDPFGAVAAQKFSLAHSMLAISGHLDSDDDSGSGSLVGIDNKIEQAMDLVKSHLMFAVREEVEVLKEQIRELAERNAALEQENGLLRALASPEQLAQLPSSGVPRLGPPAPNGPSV
# UniProt O00635: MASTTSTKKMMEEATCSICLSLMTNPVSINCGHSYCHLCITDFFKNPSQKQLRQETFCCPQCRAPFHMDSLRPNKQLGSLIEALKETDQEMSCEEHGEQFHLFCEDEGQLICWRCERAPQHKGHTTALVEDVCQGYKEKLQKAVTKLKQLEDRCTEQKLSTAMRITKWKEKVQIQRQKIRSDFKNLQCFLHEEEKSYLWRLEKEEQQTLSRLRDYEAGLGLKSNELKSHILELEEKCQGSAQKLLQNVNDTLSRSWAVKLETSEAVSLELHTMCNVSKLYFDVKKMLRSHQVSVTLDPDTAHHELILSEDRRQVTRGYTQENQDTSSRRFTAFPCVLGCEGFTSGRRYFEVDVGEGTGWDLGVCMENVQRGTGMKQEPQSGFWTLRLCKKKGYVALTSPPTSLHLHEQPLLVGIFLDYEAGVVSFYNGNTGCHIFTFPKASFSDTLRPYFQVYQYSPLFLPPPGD
# UniProt Q96CG3: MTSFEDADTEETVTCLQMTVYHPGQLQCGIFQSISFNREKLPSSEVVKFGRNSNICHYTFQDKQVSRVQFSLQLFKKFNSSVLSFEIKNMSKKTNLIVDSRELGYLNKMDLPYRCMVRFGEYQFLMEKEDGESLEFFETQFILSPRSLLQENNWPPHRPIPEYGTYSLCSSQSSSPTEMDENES
# UniProt Q9Y3A6: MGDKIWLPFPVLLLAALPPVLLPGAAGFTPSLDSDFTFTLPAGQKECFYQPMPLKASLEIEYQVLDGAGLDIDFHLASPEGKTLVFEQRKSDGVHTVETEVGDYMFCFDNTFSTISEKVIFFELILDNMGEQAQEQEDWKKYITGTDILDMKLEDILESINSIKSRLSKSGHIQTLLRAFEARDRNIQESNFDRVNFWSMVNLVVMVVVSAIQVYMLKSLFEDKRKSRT
# UniProt Q6ZXV5: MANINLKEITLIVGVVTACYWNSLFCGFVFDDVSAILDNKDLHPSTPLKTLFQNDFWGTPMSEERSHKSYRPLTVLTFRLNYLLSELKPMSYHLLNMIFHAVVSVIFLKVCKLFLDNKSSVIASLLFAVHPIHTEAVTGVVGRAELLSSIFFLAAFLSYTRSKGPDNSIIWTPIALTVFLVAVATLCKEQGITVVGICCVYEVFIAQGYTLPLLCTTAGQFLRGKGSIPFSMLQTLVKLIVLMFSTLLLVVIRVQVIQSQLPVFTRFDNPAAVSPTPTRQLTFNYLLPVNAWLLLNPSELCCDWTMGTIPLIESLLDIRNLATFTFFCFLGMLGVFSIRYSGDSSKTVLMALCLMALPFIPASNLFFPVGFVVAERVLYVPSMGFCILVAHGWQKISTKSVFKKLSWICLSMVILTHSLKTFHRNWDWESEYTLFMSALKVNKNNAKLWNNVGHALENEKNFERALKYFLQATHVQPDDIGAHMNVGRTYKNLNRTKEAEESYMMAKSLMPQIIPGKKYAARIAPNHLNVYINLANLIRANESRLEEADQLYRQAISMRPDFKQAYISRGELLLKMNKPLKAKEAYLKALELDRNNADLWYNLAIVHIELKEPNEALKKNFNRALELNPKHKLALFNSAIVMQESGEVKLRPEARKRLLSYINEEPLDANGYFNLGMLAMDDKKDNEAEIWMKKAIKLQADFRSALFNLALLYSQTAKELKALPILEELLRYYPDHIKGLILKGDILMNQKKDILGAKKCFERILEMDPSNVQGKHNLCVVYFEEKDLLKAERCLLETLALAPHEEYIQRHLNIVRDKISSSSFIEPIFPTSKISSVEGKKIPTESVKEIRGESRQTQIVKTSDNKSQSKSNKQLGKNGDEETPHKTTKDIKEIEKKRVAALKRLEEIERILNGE
# UniProt Q14258, whole entry: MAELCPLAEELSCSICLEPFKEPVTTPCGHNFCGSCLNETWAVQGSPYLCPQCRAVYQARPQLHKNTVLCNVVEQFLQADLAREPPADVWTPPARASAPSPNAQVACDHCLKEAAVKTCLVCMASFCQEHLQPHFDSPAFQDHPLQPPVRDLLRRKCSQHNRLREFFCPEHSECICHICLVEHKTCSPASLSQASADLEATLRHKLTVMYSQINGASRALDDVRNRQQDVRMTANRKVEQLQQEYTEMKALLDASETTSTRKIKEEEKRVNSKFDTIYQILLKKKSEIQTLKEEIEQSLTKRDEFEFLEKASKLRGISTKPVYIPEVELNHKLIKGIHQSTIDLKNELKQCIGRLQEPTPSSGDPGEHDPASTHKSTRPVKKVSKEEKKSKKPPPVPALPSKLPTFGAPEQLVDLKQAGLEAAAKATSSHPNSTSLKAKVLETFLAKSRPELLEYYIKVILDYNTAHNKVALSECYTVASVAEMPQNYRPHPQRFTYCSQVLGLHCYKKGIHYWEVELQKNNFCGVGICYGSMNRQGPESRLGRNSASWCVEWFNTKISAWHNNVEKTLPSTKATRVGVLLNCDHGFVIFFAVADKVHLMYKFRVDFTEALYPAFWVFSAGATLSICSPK
# UniProt Q9C037: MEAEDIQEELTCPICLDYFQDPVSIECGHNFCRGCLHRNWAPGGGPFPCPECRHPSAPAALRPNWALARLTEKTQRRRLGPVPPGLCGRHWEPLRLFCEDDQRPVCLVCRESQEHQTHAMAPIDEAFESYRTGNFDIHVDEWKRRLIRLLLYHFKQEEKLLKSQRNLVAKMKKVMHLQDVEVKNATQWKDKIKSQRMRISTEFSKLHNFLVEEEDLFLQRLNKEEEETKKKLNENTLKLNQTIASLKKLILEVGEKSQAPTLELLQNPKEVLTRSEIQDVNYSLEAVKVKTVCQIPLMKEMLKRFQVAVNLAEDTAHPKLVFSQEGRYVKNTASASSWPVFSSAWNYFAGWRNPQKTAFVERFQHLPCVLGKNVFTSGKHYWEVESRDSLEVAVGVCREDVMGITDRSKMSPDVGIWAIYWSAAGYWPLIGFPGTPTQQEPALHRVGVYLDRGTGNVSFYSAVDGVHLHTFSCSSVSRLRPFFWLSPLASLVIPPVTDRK
# UniProt Q02880: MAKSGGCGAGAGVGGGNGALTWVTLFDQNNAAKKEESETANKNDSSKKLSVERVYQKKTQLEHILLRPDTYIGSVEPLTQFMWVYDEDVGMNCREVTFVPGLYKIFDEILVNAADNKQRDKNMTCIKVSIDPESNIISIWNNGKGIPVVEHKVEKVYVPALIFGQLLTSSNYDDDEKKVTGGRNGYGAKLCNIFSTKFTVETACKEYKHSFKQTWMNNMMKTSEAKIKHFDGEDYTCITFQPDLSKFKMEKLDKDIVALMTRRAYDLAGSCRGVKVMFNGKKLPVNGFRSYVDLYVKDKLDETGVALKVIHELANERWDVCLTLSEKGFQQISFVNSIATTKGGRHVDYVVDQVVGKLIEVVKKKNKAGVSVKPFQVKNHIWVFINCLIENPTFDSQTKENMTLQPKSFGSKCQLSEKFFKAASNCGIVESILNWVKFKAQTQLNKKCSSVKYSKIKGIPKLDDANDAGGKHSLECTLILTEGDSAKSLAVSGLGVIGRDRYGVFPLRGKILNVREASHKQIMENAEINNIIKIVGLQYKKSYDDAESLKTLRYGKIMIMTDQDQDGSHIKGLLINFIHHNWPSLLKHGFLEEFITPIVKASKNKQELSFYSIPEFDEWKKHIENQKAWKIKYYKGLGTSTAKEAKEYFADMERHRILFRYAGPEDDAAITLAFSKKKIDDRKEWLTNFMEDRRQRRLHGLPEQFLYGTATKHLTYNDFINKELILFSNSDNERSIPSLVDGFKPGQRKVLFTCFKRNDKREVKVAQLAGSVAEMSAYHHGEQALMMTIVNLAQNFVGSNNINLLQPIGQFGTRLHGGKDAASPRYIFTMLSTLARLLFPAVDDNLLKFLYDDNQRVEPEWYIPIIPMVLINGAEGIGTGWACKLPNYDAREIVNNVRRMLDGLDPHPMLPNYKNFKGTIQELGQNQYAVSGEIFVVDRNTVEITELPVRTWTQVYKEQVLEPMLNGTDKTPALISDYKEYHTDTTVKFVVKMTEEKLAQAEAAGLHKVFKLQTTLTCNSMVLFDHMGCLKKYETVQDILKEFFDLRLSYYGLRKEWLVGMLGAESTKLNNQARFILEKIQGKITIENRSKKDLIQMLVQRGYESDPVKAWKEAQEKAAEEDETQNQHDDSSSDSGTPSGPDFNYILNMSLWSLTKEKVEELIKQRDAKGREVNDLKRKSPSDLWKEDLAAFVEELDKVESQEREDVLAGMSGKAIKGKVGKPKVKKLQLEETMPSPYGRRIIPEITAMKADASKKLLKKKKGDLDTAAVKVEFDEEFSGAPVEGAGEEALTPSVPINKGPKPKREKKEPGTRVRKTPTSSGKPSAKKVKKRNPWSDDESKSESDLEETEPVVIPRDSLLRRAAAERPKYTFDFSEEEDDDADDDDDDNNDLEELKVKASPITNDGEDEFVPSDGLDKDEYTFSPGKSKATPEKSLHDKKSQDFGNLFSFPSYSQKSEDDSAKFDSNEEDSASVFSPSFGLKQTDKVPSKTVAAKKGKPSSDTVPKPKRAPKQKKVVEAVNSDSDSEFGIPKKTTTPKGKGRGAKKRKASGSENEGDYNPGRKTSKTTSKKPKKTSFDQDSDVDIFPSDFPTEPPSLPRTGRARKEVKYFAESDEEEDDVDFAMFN
# UniProt Q9Y5J9: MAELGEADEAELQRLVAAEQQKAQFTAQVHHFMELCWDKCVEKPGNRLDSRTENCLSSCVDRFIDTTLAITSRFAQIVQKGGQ
# UniProt P17152: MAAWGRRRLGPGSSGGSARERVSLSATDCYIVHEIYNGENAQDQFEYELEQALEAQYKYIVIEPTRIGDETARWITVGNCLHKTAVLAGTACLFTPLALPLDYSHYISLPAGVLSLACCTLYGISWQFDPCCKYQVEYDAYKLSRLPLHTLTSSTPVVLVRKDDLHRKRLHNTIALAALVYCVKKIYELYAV
# UniProt Q71RG4: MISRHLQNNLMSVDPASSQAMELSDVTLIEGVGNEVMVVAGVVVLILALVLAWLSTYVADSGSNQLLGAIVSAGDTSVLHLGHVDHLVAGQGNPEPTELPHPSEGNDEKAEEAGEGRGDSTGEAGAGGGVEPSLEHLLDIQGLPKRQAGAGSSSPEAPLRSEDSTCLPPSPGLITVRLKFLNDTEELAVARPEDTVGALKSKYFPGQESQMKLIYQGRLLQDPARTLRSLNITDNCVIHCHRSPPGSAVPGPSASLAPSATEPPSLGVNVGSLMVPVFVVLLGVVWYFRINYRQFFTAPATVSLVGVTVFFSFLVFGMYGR
# Some of the results follow.
# Compound: COc1ccc(Cn2ccc3cc(C)c(C(=O)NO)cc32)cc1
# Test: dose-dependent thermal stabilisation call (2D-TPP, DLPTP, 10% FDR) (binary (1 = stabilised)); higher = stabilised by the compound
# Conditions: system: HL-60 intact cells; concentration range 0.04-10 µM
# Description: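 2D thermal proteome profiling in intact HL-60 cells treated with BRD-3811 (0, 0.04, 0.29, 2, 10 uM) for 90 min at 37 C, then heated 3 min at one of 12 temperatures (42-63.9 C). Soluble protein was quantified by TMT10 MS. The value is the DLPTP call of the paper: dose-dependent thermal stabilisation over all temperatures at 10% FDR (F-test of a dose-response against a flat model); one experiment, one call per tested protein.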
row,Target,dose-dependent thermal stabilisation call
1,TSFM (UniProt P43897),inactive: 0
2,TNKS1BP1 (UniProt Q9C0C2),inactive: 0
3,TMEM55B (UniProt Q86T03),inactive: 0
4,TSPAN3 (UniProt O60637),inactive: 0
5,TOX4 (UniProt O94842),inactive: 0
6,TMEM19 (UniProt Q96HH6),inactive: 0
7,TRPT1 (UniProt Q86TN4),inactive: 0
8,TSG101 (UniProt Q99816),inactive: 0
9,TMEM77 (UniProt Q6UX65),inactive: 0
10,TIA1 (UniProt P31483),inactive: 0
11,TMEM143 (UniProt Q96AN5),inactive: 0
12,TOMM5 (UniProt Q8N4H5),inactive: 0
13,TMEM189-UBE2V1 (UniProt A5PLL7),inactive: 0
14,TSC22D4 (UniProt Q9Y3Q8),inactive: 0
15,TRIM38 (UniProt O00635),inactive: 0
16,TMEM126A (UniProt Q9H061),inactive: 0
17,TIFA (UniProt Q96CG3),inactive: 0
18,TMED5 (UniProt Q9Y3A6),inactive: 0
19,TMTC3 (UniProt Q6ZXV5),inactive: 0
20,TIMM23 (UniProt O14925),inactive: 0

row,Target,dose-dependent thermal stabilisation call
1,TOR3A (UniProt Q9H497),inactive: 0
2,TRIM25 (UniProt Q14258),inactive: 0
3,TRIM44 (UniProt Q96DX7),inactive: 0
4,TRIM4 (UniProt Q9C037),inactive: 0
5,TOP2B (UniProt Q02880),inactive: 0
6,TOMM70A (UniProt O94826),inactive: 0
7,TIMM8B (UniProt Q9Y5J9),inactive: 0
8,TLCD1 (UniProt Q96CP7),inactive: 0
9,TRAP1 (UniProt Q12931),inactive: 0
10,TMEM62 (UniProt Q0P6H9),inactive: 0
11,TMEM11 (UniProt P17152),inactive: 0
12,THRAP3 (UniProt Q9Y2W1),inactive: 0
13,TMEM199 (UniProt Q8N511),inactive: 0
14,TMEM14C (UniProt Q9P0S9),inactive: 0
15,TMOD3 (UniProt Q9NYL9),inactive: 0
16,TRNT1 (UniProt Q96Q11),inactive: 0
17,TMUB2 (UniProt Q71RG4),inactive: 0
18,TOMM34 (UniProt Q15785),inactive: 0
19,TMEM181 (UniProt Q9P2C4),inactive: 0
20,TSR1 (UniProt Q2NL82),inactive: 0

# Eleven entries from above, with tabs.
row	Target	dose-dependent thermal stabilisation call
12	TOMM5 (UniProt Q8N4H5)	inactive: 0
13	TMEM189-UBE2V1 (UniProt A5PLL7)	inactive: 0
14	TSC22D4 (UniProt Q9Y3Q8)	inactive: 0
15	TRIM38 (UniProt O00635)	inactive: 0
16	TMEM126A (UniProt Q9H061)	inactive: 0
17	TIFA (UniProt Q96CG3)	inactive: 0
18	TMED5 (UniProt Q9Y3A6)	inactive: 0
19	TMTC3 (UniProt Q6ZXV5)	inactive: 0
20	TIMM23 (UniProt O14925)	inactive: 0
1	TOR3A (UniProt Q9H497)	inactive: 0
2	TRIM25 (UniProt Q14258)	inactive: 0
